Results published in the supplement of paper PMC12067093, “Discovery and optimisation of a covalent ligand for TRIM25 and its application to targeted protein ubiquitination” (Chemical Science, 2025).
This is one part of the list.

These targets were tested with Cc1cc(ccc1-c1ccccc1)C(=O)N1CCCN(CC1)C(=O)CCl [compound 10] (assay: probe-labelled cysteine peptide fold change vs DMSO (competition) (log2 fold change); higher = less target engagement (more negative = stronger competition)). Details: 10 µM; THP-1; incubation time: 4 h.
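Note: competitive profiling in live THP-1 cells: cysteine peptides tagged with an iodoacetamide desthiobiotin (IA-DTB) probe, intensity after compound treatment relative to DMSO-treated cells.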

First: CLIP1_P30622_111_YFQCEPLK (UniProt P30622)
Second: CHTF18_Q8WVB6_825_LEPNVEELCR (UniProt Q8WVB6)
The “probe-labelled cysteine peptide fold change” value of the first is higher: 0.222 for the first, -0.2 for the second.

First: CKAP5_Q14008_1500_CEMPELVQHK (UniProt Q14008)
Second: CLTC_Q00610_1528_QSVELCK (UniProt Q00610)
The “probe-labelled cysteine peptide fold change” value of the first is lower: -0.307 for the first, -0.166 for the second.

Compared with CIC_Q96RK0_1506_VCLQLK (UniProt Q96RK0), “CHD9_Q3L8U1_1257_FSKPDSDRFVFLLCTR (UniProt Q3L8U1)” is higher in “probe-labelled cysteine peptide fold change” value: -0.0417 for the first, 0.0548 for the second.

Going from “CKAP5_Q14008_592_EIVEPELSIEVCEEK (UniProt Q14008)” to “CHI3L1_P36222_300_EAGTLAYYEICDFLR (UniProt P36222)”, the “probe-labelled cysteine peptide fold change” value rises from -0.274 to -0.118.

Going from “CIP2A_Q8TCG1_752_DLQITCDSLNK (UniProt Q8TCG1)” to “CINP_Q9BW66_120_GICELENYHYGEESK (UniProt Q9BW66)”, the “probe-labelled cysteine peptide fold change” value falls from 0.0426 to 0.0309.

First: CHD6_Q8TD26_172_SCTDSAAR (UniProt Q8TD26)
Second: CHD1L_Q86WJ1_739_YVSGDVTHPQAGAEDALIVHCVDDSGHWGR (UniProt Q86WJ1)
The “probe-labelled cysteine peptide fold change” value of the first is higher: 0.0434 for the first, -0.141 for the second.

Going from “CHORDC1_Q9UHD1_176_TYQGLESLEEVCVYHSGVPIFHEGMK (UniProt Q9UHD1)” to “CLK2_P49760_180_VVQCVDHR (UniProt P49760)”, the “probe-labelled cysteine peptide fold change” value rises from 0.0745 to 0.117.

Compared with “CHORDC1_Q9UHD1_86_ELCELK (UniProt Q9UHD1)”, “CHAF1A_Q13111_465_TLAGSCGK (UniProt Q13111)” is lower in “probe-labelled cysteine peptide fold change” value: -0.0657 for the first, -0.182 for the second.

Going from “CIP2A_Q8TCG1_358_WLSQPLDGSENCSVLALELFK (UniProt Q8TCG1)” to “CLASP2_O75122_1184_VLCPIIQTADYPINLAAIK (UniProt O75122)”, the “probe-labelled cysteine peptide fold change” value falls from 0.443 to 0.186.

First: CLASP2_O75122_528_IPRPSVSQGCSR (UniProt O75122)
Second: CIAO1_O76071_19+34_CWFLAWNPAGTLLASCGGDR (UniProt O76071)
The “probe-labelled cysteine peptide fold change” value of the first is lower: -0.118 for the first, 0.181 for the second.

With “CMC1_Q7Z7K0_77_ECLTAYYNDPAFYEECK (UniProt Q7Z7K0)” the “probe-labelled cysteine peptide fold change” value was -0.309.

Same assay, conditions: 50 µM; THP-1; incubation time: 4 h

First: CHD8_Q9HCK8_1913_LALCQPPGPELPK (UniProt Q9HCK8)
Second: CGAS_Q8N884_199_CDSAFR (UniProt Q8N884)
The “probe-labelled cysteine peptide fold change” value of the first is lower: -0.169 for the first, 0.0725 for the second.

Compared with “CHORDC1_Q9UHD1_5_ALLCYNR (UniProt Q9UHD1)”, “CLTCL1_P53675_617_AHIAQLCEK (UniProt P53675)” is lower in “probe-labelled cysteine peptide fold change” value: 0.348 for the first, 0.02 for the second.

First: CHAF1A_Q13111_7_MLEELECGAPGAR (UniProt Q13111)
Second: CHERP_Q8IWX8_190_SPPHCELMAGHLR (UniProt Q8IWX8)
The “probe-labelled cysteine peptide fold change” value of the first is higher: 0.0367 for the first, -0.164 for the second.

First: CIC_Q96RK0_506_SSFTHCRPPLDPEPPGPPDPPVAFGK (UniProt Q96RK0)
Second: CIZ1_Q9ULV3_687_QSLRPFCTVCNR (UniProt Q9ULV3)
The “probe-labelled cysteine peptide fold change” value of the first is lower: -0.226 for the first, -0.0645 for the second.

Going from “CHD8_Q9HCK8_1116_EACHIIPHDFHLQAMVR (UniProt Q9HCK8)” to “CIC_Q96RK0_336_APGSSSCGAER (UniProt Q96RK0)”, the “probe-labelled cysteine peptide fold change” value falls from -0.0815 to -0.624.

First: CHKB_Q9Y259_85_CSLPDHLPSVGEEPR (UniProt Q9Y259)
Second: CIB1_Q99828_134_LVNCLTGEGEDTR (UniProt Q99828)
The “probe-labelled cysteine peptide fold change” value of the first is higher: 0.245 for the first, 0.198 for the second.

Compared with “CLCC1_Q96S66_60_DVSPDLSCADEISECYHK (UniProt Q96S66)”, “CIAO1_O76071_34_CWFLAWNPAGTLLASCGGDRR (UniProt O76071)” is lower in “probe-labelled cysteine peptide fold change” value: 0.0652 for the first, -0.453 for the second.

Compared with “CLTC_Q00610_824_VNPSRLPVVIGGLLDVDCSEDVIK (UniProt Q00610)”, “CMPK2_Q5EBM0_226_AVLEECTSFIPEAR (UniProt Q5EBM0)” is lower in “probe-labelled cysteine peptide fold change” value: 0.208 for the first, -0.0982 for the second.

Compared with “CLTC_Q00610_1102_CNEPAVWSQLAK (UniProt Q00610)”, “CLIP1_P30622_111_YFQCEPLK (UniProt P30622)” is lower in “probe-labelled cysteine peptide fold change” value: 0.0265 for the first, 0.0162 for the second.

First: CHTF18_Q8WVB6_825_LEPNVEELCR (UniProt Q8WVB6)
Second: CKAP5_Q14008_1500_CEMPELVQHK (UniProt Q14008)
The “probe-labelled cysteine peptide fold change” value of the first is higher: 0.191 for the first, -0.104 for the second.

Going from “CLTC_Q00610_1528_QSVELCK (UniProt Q00610)” to CIC_Q96RK0_1506_VCLQLK (UniProt Q96RK0), the “probe-labelled cysteine peptide fold change” value falls from 0.0303 to -0.878.

First: CHD9_Q3L8U1_1257_FSKPDSDRFVFLLCTR (UniProt Q3L8U1)
Second: CKAP5_Q14008_592_EIVEPELSIEVCEEK (UniProt Q14008)
The “probe-labelled cysteine peptide fold change” value of the first is lower: -0.171 for the first, -0.0224 for the second.

Going from “CHI3L1_P36222_300_EAGTLAYYEICDFLR (UniProt P36222)” to “CIP2A_Q8TCG1_752_DLQITCDSLNK (UniProt Q8TCG1)”, the “probe-labelled cysteine peptide fold change” value rises from -0.107 to -0.0635.

Going from “CINP_Q9BW66_120_GICELENYHYGEESK (UniProt Q9BW66)” to “CHD6_Q8TD26_172_SCTDSAAR (UniProt Q8TD26)”, the “probe-labelled cysteine peptide fold change” value falls from 0.44 to -0.12.

First: CHD1L_Q86WJ1_739_YVSGDVTHPQAGAEDALIVHCVDDSGHWGR (UniProt Q86WJ1)
Second: CHORDC1_Q9UHD1_176_TYQGLESLEEVCVYHSGVPIFHEGMK (UniProt Q9UHD1)
The “probe-labelled cysteine peptide fold change” value of the first is lower: -0.153 for the first, 0.0343 for the second.

First: CLK2_P49760_180_VVQCVDHR (UniProt P49760)
Second: CHORDC1_Q9UHD1_86_ELCELK (UniProt Q9UHD1)
The “probe-labelled cysteine peptide fold change” value of the first is higher: 0.416 for the first, 0.205 for the second.

Going from “CHAF1A_Q13111_465_TLAGSCGK (UniProt Q13111)” to “CIP2A_Q8TCG1_358_WLSQPLDGSENCSVLALELFK (UniProt Q8TCG1)”, the “probe-labelled cysteine peptide fold change” value falls from -0.674 to -0.951.

Compared with “CLASP2_O75122_1184_VLCPIIQTADYPINLAAIK (UniProt O75122)”, “CLASP2_O75122_528_IPRPSVSQGCSR (UniProt O75122)” is lower in “probe-labelled cysteine peptide fold change” value: 0.199 for the first, -0.436 for the second.

Compared with “CIAO1_O76071_19+34_CWFLAWNPAGTLLASCGGDR (UniProt O76071)”, “CMC1_Q7Z7K0_77_ECLTAYYNDPAFYEECK (UniProt Q7Z7K0)” is higher in “probe-labelled cysteine peptide fold change” value: -0.482 for the first, -0.0941 for the second.
